# No constants are given. Whether binding was seen depends on the method and setting. Binding can be weak; no strength is given. Where a sequence is shown, tags or fusion partners need not be part of it. For some of these results: Binding seen in cells or lysates may run through a third protein.
# T1: AHG1, split YFP fusion (Arabidopsis thaliana) (UniProt Q9FLI3)
# T1 sequence: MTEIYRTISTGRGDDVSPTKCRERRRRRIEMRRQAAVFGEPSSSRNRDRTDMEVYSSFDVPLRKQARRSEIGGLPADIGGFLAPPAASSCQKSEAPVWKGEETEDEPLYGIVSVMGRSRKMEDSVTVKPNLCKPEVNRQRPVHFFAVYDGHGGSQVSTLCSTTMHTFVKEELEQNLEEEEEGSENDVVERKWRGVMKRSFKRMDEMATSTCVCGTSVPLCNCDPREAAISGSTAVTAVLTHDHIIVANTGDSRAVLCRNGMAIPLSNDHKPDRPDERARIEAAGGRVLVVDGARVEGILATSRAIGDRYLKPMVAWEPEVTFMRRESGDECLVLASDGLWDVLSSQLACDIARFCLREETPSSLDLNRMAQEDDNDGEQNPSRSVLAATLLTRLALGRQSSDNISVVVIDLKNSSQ
# T2: SnRK2.3, split YFP fusion (Arabidopsis thaliana) (UniProt Q39193)
# T2 sequence: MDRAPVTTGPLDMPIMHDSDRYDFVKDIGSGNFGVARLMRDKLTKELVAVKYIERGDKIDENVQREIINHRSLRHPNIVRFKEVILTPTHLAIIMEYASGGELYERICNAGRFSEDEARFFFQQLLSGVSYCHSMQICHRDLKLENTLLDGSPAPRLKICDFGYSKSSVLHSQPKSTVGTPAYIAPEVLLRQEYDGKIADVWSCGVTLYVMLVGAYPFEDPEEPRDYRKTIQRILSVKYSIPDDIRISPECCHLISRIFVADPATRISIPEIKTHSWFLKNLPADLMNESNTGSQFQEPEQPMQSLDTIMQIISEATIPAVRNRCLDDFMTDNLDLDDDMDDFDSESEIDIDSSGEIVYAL
# B1: ABA-… …ON 1 (AHG1), AD fusion (enzyme, UniProt Q9FLI3 1-416)
# chain: T1 sequence
# How the values were obtained:
# [1] = target: T1, AHG1, split YFP fusion (Arabidopsis thaliana); test: split reporter
# [2] = target: T2, SnRK2.3, split YFP fusion (Arabidopsis thaliana); test: split reporter
# two-hybrid = substrate: C domain of AFP1, yeast two-hybrid fusion (Arabidopsis thaliana); test: two-hybrid
molecule,measurement,setting,value
"A domain of AFP1, split YFP fusion (Arabidopsis thaliana) (domain or fragment)",binding,[1],binds
same,binding,[2],binds
"A domain of AFP2, split YFP fusion (Arabidopsis thaliana) (domain or fragment)",binding,[1],binds
same,binding,[2],no binding
"B domain of AFP1, split YFP fusion (Arabidopsis thaliana) (domain or fragment)",binding,[1],binds
same,binding,[2],binds
"B domain of AFP2, split YFP fusion (Arabidopsis thaliana) (domain or fragment)",binding,[1],binds
same,binding,[2],binds
"C domain of AFP1, split YFP fusion (Arabidopsis thaliana) (domain or fragment)",binding,[1],binds
same,binding,[2],no binding
"C domain of AFP2, split YFP fusion (Arabidopsis thaliana) (domain or fragment)",binding,[1],binds
same,binding,[2],binds
B1,binding,two-hybrid,binds
